In PubChem BioAssay AID743266 (National Center for Advancing Translational Sciences (NCATS), 2014):
Out of some 410,000 compounds screened, about 310 (0.076%) were called active. This list was built around the results that the source calls inconclusive (neither active nor inactive); the mix of calls is not that of the screen. The call rests on the fitted dose curve; in most records, active means well fitted activation curve with a large enough effect; inconclusive means small, poorly fitted or top-dose-only effect, or another doubt; inactive means no such curve, though single readings can be large or run the other way. Where the call is inconclusive, the potency comes from a doubtful curve fit.

The chains behind the UniProt entries cited, without tags or fusion partners. Where a name states a change or a piece, a line headed by the entry shows the natural chain unless it says otherwise.
UniProt Q03431: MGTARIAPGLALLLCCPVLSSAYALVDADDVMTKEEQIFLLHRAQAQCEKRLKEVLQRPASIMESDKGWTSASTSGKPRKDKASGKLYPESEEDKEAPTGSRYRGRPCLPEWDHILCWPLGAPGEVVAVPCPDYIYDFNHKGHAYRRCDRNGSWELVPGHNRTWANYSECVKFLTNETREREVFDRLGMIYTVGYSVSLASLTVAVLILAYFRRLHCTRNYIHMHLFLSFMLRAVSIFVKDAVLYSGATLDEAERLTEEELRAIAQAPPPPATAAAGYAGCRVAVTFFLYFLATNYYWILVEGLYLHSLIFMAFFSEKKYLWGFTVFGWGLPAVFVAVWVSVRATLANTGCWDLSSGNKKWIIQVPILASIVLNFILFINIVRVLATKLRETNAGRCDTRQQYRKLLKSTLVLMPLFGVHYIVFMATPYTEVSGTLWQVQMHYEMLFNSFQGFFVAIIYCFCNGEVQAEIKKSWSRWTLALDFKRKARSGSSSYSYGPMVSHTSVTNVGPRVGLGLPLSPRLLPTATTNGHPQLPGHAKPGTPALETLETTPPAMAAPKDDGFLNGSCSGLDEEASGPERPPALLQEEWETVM

What follows are molecules tested against Parathyroid hormone/parathyroid hormone-related peptide receptor (Homo sapiens) (UniProt Q03431) (assay: qHTS for PTHR1 Agonists: Primary Screen). Details: HEK293 GP2 PTHR1 cells, GloSensor cAMP luminescence, 1 h; activation: at 115 µM (top of the series) unless noted; series mostly up to 115 µM.
Outline: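 HEK-293-derived GP2 cells expressing PTHR1 and a GloSensor cAMP reporter, 3,000/well, plated overnight, given luciferin plus IBMX (each 0.5 mM as added) for 1 h at 37 °C, then compound for 1 h at 37 °C. Luminescence was read after 15 min at room temperature.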
Further: nearly all actives have a fitted effect of over 55% in size.
Potency means the concentration at half of the fitted maximal effect.

activation, inconclusive:
Cc1nnc2ccc(-c3ccc(NS(=O)(=O)c4ccccc4F)cc3)nn12 48.2% [activator]
O=C(NNCC(O)COc1ccccc1)c1ccccc1 (configuration not stated) 41.4% [activator]
O=C(Nc1cccnc1)c1ccc(C(=O)Nc2cccnc2)cc1 66.1% [activator]
Cc1c(Cl)cccc1NC(=O)C1NC(=O)CC1c1ccccc1 (configuration not stated) -53.6% [activator]
Cc1ccc(C(C)C)c(OCC(=O)NC2CCN(C)CC2)c1 88.7% [activator]
COc1ccc(CCN2CCC(CNC(=O)c3cnn(-c4ccc(C)cc4)c3C3CCN(C(=O)OC(C)(C)C)CC3)CC2)cc1 37.3% [activator]
CCCCN(C(=O)C1CC(=O)N(c2ccc3c(c2)OCCO3)C1)c1c(N)n(CC(C)C)c(=O)[nH]c1=O (configuration not stated) 33.1% [activator]
COC(=O)CN(C#N)c1nc(NC(C)C)nc(OC)n1 34.4% [activator] [at 57.5 µM]
Cc1cc(Cl)ccc1NC(=O)COC(=O)c1nc2nccc(C)n2n1 119% [activator]
CCCC(=O)N1c2ccc(-c3csc(N)n3)cc2CC1C (configuration not stated) 22.8% [activator]
COc1ccc(OC)c(CCNc2nc3ccccc3c3nc(-c4cccnc4)nn23)c1 34% [activator]
COc1cc(/C=N/NC(=O)c2cccc(C)c2)ccc1OCC(=O)Nc1ccccc1 -75.9% [activator]

Sorted by molar mass (low to high): 3 of the compounds above
activation, inconclusive:
O=C(NNCC(O)COc1ccccc1)c1ccccc1 (configuration not stated) 41.4% [activator]
Cc1c(Cl)cccc1NC(=O)C1NC(=O)CC1c1ccccc1 (configuration not stated) -53.6% [activator]
COc1cc(/C=N/NC(=O)c2cccc(C)c2)ccc1OCC(=O)Nc1ccccc1 -75.9% [activator]

Following part.

activation, inactive:
O=C(NCc1ccccn1)c1ccc(N2CCCC2=O)cc1 -22.2% [at 57.5 µM]
O=C(CSCC(=O)Nc1nc(-c2ccc3c(c2)OCO3)cs1)Nc1nccs1 -45.6%
COc1cc(-c2cc(-c3nnco3)c3ccccc3n2)cc(OC)c1OC -12.6%
CCC(=O)N/C(N)=N/c1nc2ccccc2o1 -26%
CCc1ccc(C2CC(=O)c3c([nH]c(C(=O)OC4CCC(C)CC4)c3C)C2)cc1 (configuration not stated) -47.4%
O=C(Cn1c(=O)n(-c2ccccc2)c(=O)c2ccc(C(=O)NCc3ccc4c(c3)OCO4)cc21)Nc1ccc(F)cc1 0.293%
CNC(=S)N1N=C(c2ccc(OC)cc2)CC1c1ccccc1Cl (configuration not stated) -8%
O=C(c1cnn2c1NC(c1ccco1)CC2C(F)(F)F)N1CCN(c2cccc(Cl)c2)CC1 (configuration not stated) -53.4% [at 57.5 µM]
CC(=O)c1ccc(NC(=O)Cn2cc(S(=O)(=O)Cc3cccc(Cl)c3)c3ccccc32)cc1 -38.5%
Cc1ccc2nc(N3CCN(c4cccc(Cl)c4)CC3)c(-n3nc(C)cc3C)nc2c1 -13.2%
Cc1ccc(-n2c(C)cc3c2CC(C)(C)CC3=O)cc1C -21.4% [at 57.5 µM]
Cc1c(CCNC(=O)c2ccc(Br)o2)sc2nc(-c3ccc(F)cc3)nn12 -89.7%
Cc1cn([C@H](C(=O)NCCCCCCCCCCC(=O)N2CCN(C(=O)OC(C)(C)C)CC2)[C@@H](C)O)nn1 -47.7%

2 neighbouring entries from above, for reference:
activation, inactive:
CNC(=S)N1N=C(c2ccc(OC)cc2)CC1c1ccccc1Cl (configuration not stated) -8%
O=C(c1cnn2c1NC(c1ccco1)CC2C(F)(F)F)N1CCN(c2cccc(Cl)c2)CC1 (configuration not stated) -53.4% [at 57.5 µM]

Next part.

Potency, inconclusive:
CCCCc1ccc(NS(=O)(=O)N(C)C)cc1 3.55 µM [activator, full curve, poor fit]
COc1ccccc1-n1nc(-c2ccccc2)c2cnc3c(F)cc(F)cc3c21 31.6 µM [activator, partial curve]
O=C(CCc1ccccc1)NCc1ccncc1 22.4 µM [activator, single point]
CCOC(=O)C1Cn2c(nc3c(c2=O)C(C)(CC)Cc2ccccc2-3)S1 (configuration not stated) 50.1 µM [activator, single point]
CN(c1ccccc1C(=O)Nc1cccc(Cl)c1Cl)S(C)(=O)=O 35.5 µM [activator, single point]
O=C(NNC(=O)C1C2C=CC(C2)C1C(=O)O)c1cc(Cl)ccc1O (configuration not stated) 50.1 µM [activator, partial curve, poor fit]
Cc1cc(C)c(O)c(-c2cc(C(=O)NCc3ccccc3)[nH]n2)c1 35.5 µM [activator, single point]
CCC(=O)Nc1ccc(C(=O)N/N=C/c2ccccc2[N+](=O)[O-])cc1 39.8 µM [activator, single point]
COc1ccc(C(=O)NCC(=O)N2CCC3(CC2)NCCc2[nH]cnc23)cc1 126 µM [activator, single point]
CCOC(=O)c1ccc(NC(=O)CNC(=O)C23CC4CC(CC(C4)C2)C3)cc1 35.5 µM [activator, single point]
COc1cc(NC(=O)CN(c2ccc(C)cc2)S(=O)(=O)c2cccc3nonc23)cc(OC)c1 126 µM [activator, single point]
Cc1ccc2oc(-c3ccc(NC(=O)c4ccc5c(c4)OCO5)cc3)nc2c1 2.51 µM [activator, partial curve, poor fit]
Cc1cc(C)c(NC(=O)Cn2c(=O)n(-c3ccc(CC(=O)NCC4CCCO4)cc3)c(=O)c3ccccc32)c(C)c1 (configuration not stated) 126 µM [activator, single point]
O=C(CCS(=O)(=O)c1ccccc1)NCc1ccccc1 3.98 µM [activator, full curve, poor fit]
O=C(NCCc1ccc(OC(F)F)cc1)C1CC(=O)N(c2ccc3c(c2)OCCO3)C1 (configuration not stated) 15.8 µM [activator, partial curve, poor fit]
Cc1csc(NC(=O)CS(=O)(=O)Cc2ccccc2)n1 10 µM [activator, partial curve, poor fit]
COc1ccc(-n2nnnc2SCC(=O)N2CCCC2=O)cc1 31.6 µM [activator, partial curve, poor fit]
CCC(=O)N1N=C(c2ccc(C)o2)CC1c1ccc(N(C)C)cc1 (configuration not stated) 12.6 µM [activator, partial curve, poor fit]
Cc1nnc(N(CCC#N)CCC#N)s1 15.8 µM [activator, partial curve, poor fit]
CCOC(=O)CCSc1nc(-c2ccc3c(c2)OCO3)cc(C(F)(F)F)c1C#N 39.8 µM [activator, single point]
CCOC(=O)C1CC(c2ccc(Cl)cc2)=NNC1=O (configuration not stated) 10 µM [activator, partial curve]
O=C(COc1ncnc2ccccc12)Nc1cc(S(=O)(=O)N2CCOCC2)ccc1Cl 44.7 µM [activator, partial curve]
COc1ccc(OC)c(NC(=O)c2cccc(NC(=O)c3ccccc3)c2)c1 2.24 µM [activator, partial curve]
COc1ccc(S(=O)(=O)N2CCCC(C(=O)NCc3ccco3)C2)cc1Cl (configuration not stated) 4.47 µM [activator, partial curve]
COc1ccc(C(=O)Cn2c(=O)c(-c3cc(C)ccc3NC(C)=O)nc3ccccc32)cc1 28.2 µM [activator, partial curve]
Cc1cc(C)c(C)c(S(=O)(=O)NCCCN2CCOCC2)c1C 14.1 µM [activator, partial curve]
COC(=O)C1C(O)=C(C=Nc2cccc3ccccc23)C(=O)CC1(C)C (configuration not stated) 14.1 µM [activator, partial curve, poor fit]
COc1ccccc1NC(=O)c1c(NC(=O)CCC(=O)O)sc2c1CCCCC2 126 µM [activator, single point]
O=C(CCCCCCCC(=O)c1ccccc1)c1ccccc1 15.8 µM [activator, partial curve]
COc1cc2c(=O)n(CCc3ccccc3)c(=O)n(CC(=O)Nc3ccccc3)c2cc1OC 10 µM [activator, partial curve, poor fit]
O=C(N/N=C1\CCc2ccccc21)c1ccncc1 39.8 µM [activator, partial curve, poor fit]
Cc1ccc(F)cc1NC(=O)COC(=O)COc1ccc(C#N)cc1 17.8 µM [activator, full curve]
CCN1CCN(c2ccc(Nc3ccnc4ccccc34)cc2)CC1 44.7 µM [activator, single point]
CNc1nc(Nc2ccccc2)nc(OCC(F)(F)F)n1 20 µM [activator, full curve, poor fit]
CC(=O)c1cc(-c2ccccc2)n(CCC(=O)Nc2ccc(C)cc2C)c1C 35.5 µM [activator, partial curve, poor fit]
COCCn1c(SCC(=O)Nc2ccc(C(N)=O)cc2)nc2c([nH]c3ccccc32)c1=O 15.8 µM [activator, partial curve, poor fit]

outcome, inactive:
CCN1c2ccccc2-n2cccc2C12CCN(C(=O)Nc1ccccc1Br)CC2
CCOc1ccccc1NC(=O)Cn1cc(C(=O)c2cccc(OC)c2)c(=O)c2ccc(C)nc21
CCCOc1ccc(-c2nn(-c3ccccc3)cc2/C=C2\SC(N)=NC2=O)cc1
Cc1[nH]c2ccc(C(=O)N3CCN(c4ccc(F)cc4)CC3)cc2c1C
Cc1cccc(CN2C(=O)N/C(=C/c3ccc(C)s3)C2=O)c1 inactive [at 57.5 µM]
CCCCNC(=O)C1=C(N)C(C(=O)Nc2ccc(C)c(S(=O)(=O)N3CCCCC3)c2)SC1=Nc1ccc(C)cc1C (configuration not stated)
